These results are taken from PubChem BioAssay AID256 (DTP/NCI, 2004).

In this test the test system is CD2F1 mice, L1210 leukemia ip, survival T/C. Description: NCI In Vivo Anticancer Drug Screen. Data for tumor model L1210 Leukemia (intraperitoneal) in CD2F1 (CDF1) mice. The note with it: higher T/C = longer survival. The procedure:
The antitumor activity of compounds was measured in mice bearing transplantable tumors. Survival or tumor size were measured and the results are expressed as the measurement made in the treated group (T) divided by the measurement made in the vehicle treated control group (C). The tumor model used in this assay is L1210 Leukemia (intraperitoneal) in CD2F1 (CDF1) mice

Where [1] appears, read: T/C endpoint: mean survival time, dose: 400.0 mg/kg/injection, schedule: Q04DX003 (ip), vehicle: saline with Tween-80.

The list does not hold the whole screen: it gathers tests that were run many times, whatever their T/C, doses with no T/C, and many T/C values between a quarter and a half above the control. Further doses and runs are listed elsewhere. T/C gives the treated animals as a percentage of the vehicle group. Some doses have a count of surviving animals in place of a T/C: the source files T/C as zero there, which appears to mark a toxic dose or a test without result, not a measured value. Some survivor counts are full or nearly so, which does not show that the dose was tolerated: survival well below the control is almost never listed, so the zero probably covers shortened survival too. Survivors were counted at the toxicity check, usually on the fifth day, unless a day is given; later deaths do not show. Schedule codes are those of the source, taken here to give the interval after Q, in days (D) or hours (H), and the number of doses after X. Where survival is the endpoint, this PubChem deposit counts one and a half times the control or more as active, and values a quarter to a half above the control carry no call in these data; other NCI protocols may use other cut-offs. Some entries were tested several times; their values stand side by side, smallest first. Signs of the kind (2×) stand for listed records that agree. Some T/C values are followed by the survivors on the day toxicity was checked, most often the fifth; without a count, all were alive then.

In the case of `Cc1c(N)nc([C@H](CC(N)=O)NC[C@H](N)C(N)=O)nc1C(=O)N[C@H](C(=O)N[C@H](C)[C@@H](O)[C@H](C)C(=O)N[C@H](C(=O)NCCc1nc(-c2nc(C(=O)NCCC[S+](C)C)cs2)cs1)[C@@H](C)O)C(OC1OC(CO)C(O)C(O)C1OC1OC(CO)C(O)C(OC(N)=O)C1O)c1cnc[nH]1` (stereo not given in full), the T/C reads like this: (T/C endpoint: mean survival time, dose: 4.0 mg/kg/injection, schedule: Q01DX009 (ip), vehicle: saline, evaluated on day 5) 98, 102, 111 % of control; (T/C endpoint: mean survival time, dose: 4.0 mg/kg/injection, schedule: Q01DX009 (ip), vehicle: saline, evaluated on day 30) 101 [5 of 6 alive], 104, 109 % of control; (T/C endpoint: mean survival time, dose: 8.0 mg/kg/injection, schedule: Q01DX009 (ip), vehicle: saline, evaluated on day 5) 102 and 106 % of control (2×); (T/C endpoint: mean survival time, dose: 8.0 mg/kg/injection, schedule: Q01DX009 (ip), vehicle: saline, evaluated on day 30) 103, 110, 115 % of control; (T/C endpoint: mean survival time, dose: 16.0 mg/kg/injection, schedule: Q01DX009 (ip), vehicle: saline, evaluated on day 5) 102 and 104 % of control; (T/C endpoint: mean survival time, dose: 16.0 mg/kg/injection, schedule: Q01DX009 (ip), vehicle: saline, evaluated on day 30) 98 (2×) and 110 % of control. Also, the T/C is 100, 104, 107 % of control (T/C endpoint: median survival time, dose: 2.0 mg/kg/injection, schedule: Q01DX009 (ip), vehicle: saline, evaluated on day 30); 107 % of control (T/C endpoint: median survival time, dose: 2.0 mg/kg/injection, schedule: Q01DX009 (ip), vehicle: saline, evaluated on day 60); 100 % of control (T/C endpoint: median survival time, dose: 4.0 mg/kg/injection, schedule: Q01DX009 (ip), vehicle: saline, evaluated on day 5); 100, 107, 118 % of control (T/C endpoint: median survival time, dose: 4.0 mg/kg/injection, schedule: Q01DX009 (ip), vehicle: saline, evaluated on day 30); 105 % of control (T/C endpoint: median survival time, dose: 4.0 mg/kg/injection, schedule: Q01DX009 (ip), vehicle: saline, evaluated on day 60); 93 % of control (T/C endpoint: median survival time, dose: 8.0 mg/kg/injection, schedule: Q01DX009 (ip), vehicle: saline, evaluated on day 5). The T/C is, setting by setting: (T/C endpoint: median survival time, dose: 8.0 mg/kg/injection, schedule: Q01DX009 (ip), vehicle: saline, evaluated on day 30) 100, 109, 118 % of control; (T/C endpoint: median survival time, dose: 8.0 mg/kg/injection, schedule: Q01DX009 (ip), vehicle: saline, evaluated on day 60) 110 % of control; (T/C endpoint: median survival time, dose: 16.0 mg/kg/injection, schedule: Q01DX009 (ip), vehicle: saline, evaluated on day 5) 93 % of control; (T/C endpoint: median survival time, dose: 16.0 mg/kg/injection, schedule: Q01DX009 (ip), vehicle: saline, evaluated on day 30) 100 and 116 % of control (2×); (T/C endpoint: median survival time, dose: 16.0 mg/kg/injection, schedule: Q01DX009 (ip), vehicle: saline, evaluated on day 60) 109 % of control; (T/C endpoint: median survival time, dose: 32.0 mg/kg/injection, schedule: Q01DX009 (ip), vehicle: saline, evaluated on day 5) 90 % of control. The T/C by setting is: (T/C endpoint: median survival time, dose: 32.0 mg/kg/injection, schedule: Q01DX009 (ip), vehicle: saline, evaluated on day 30) 94, 113, 118 % of control; (T/C endpoint: median survival time, dose: 32.0 mg/kg/injection, schedule: Q01DX009 (ip), vehicle: saline, evaluated on day 60) 114 % of control. The survivor count runs as follows: (T/C endpoint: mean survival time, dose: 32.0 mg/kg/injection, schedule: Q01DX009 (ip), vehicle: saline) 10 of 10; (T/C endpoint: mean survival time, dose: 64.0 mg/kg/injection, schedule: Q01DX009 (ip), vehicle: saline) 9 of 10; (T/C endpoint: median survival time, dose: 8.0 mg/kg/injection, schedule: Q03HX024 (ip), vehicle: saline) 6 of 10; (T/C endpoint: median survival time, dose: 32.0 mg/kg/injection, schedule: Q03HX008 (ip), vehicle: saline) 7 of 10; (T/C endpoint: median survival time, dose: 64.0 mg/kg/injection, schedule: Q01DX009 (ip), vehicle: saline) 8 of 8.
Take `CC/C(=N/NC(=O)c1ccccc1)c1ccccc1`: the survivor count runs as follows: (T/C endpoint: mean survival time, dose: 200.0 mg/kg/injection, schedule: Q01DX009 (ip), vehicle: Klucel (hydroxypropylcellulose) (HPC)) 5 of 6; (T/C endpoint: mean survival time, dose: 400.0 mg/kg/injection, schedule: Q01DX009 (ip), vehicle: Klucel (hydroxypropylcellulose) (HPC)) 0 of 6.
For `CN(C)[C@@H]1C(=O)C(C(=O)NCNC(CO)(CO)CO)=C(O)[C@@]2(O)C(=O)C3=C(O)c4c(O)cccc4[C@@](C)(O)[C@H]3C[C@@H]12`, the survivor count (T/C endpoint: mean survival time, dose: 132.0 mg/kg/injection, schedule: Q01DX009 (ip), vehicle: saline) was 6 of 6.
Regarding `NCCS[As](=O)(O)SCCN`, the survivor count (T/C endpoint: mean survival time, dose: 100.0 mg/kg/injection, schedule: Q04DX003 (ip), vehicle: saline) is 2 of 6; the survivor count (T/C endpoint: mean survival time, dose: 200.0 mg/kg/injection, schedule: Q04DX003 (ip), vehicle: saline) is on record as 0 of 6; the survivor count (T/C endpoint: mean survival time, dose: 400.0 mg/kg/injection, schedule: Q04DX003 (ip), vehicle: saline) is 0 of 6.
Consider `COc1ccc(/C=C/C(=O)Oc2cc(O)cc(O)c2)cc1`, for which the survivor count (T/C endpoint: mean survival time, dose: 100.0 mg/kg/injection, schedule: Q01DX001 (ip), vehicle: saline with Tween-80) was 6 of 6.
Consider `O=c1ccnc(C(F)(F)F)[nH]1`, for which the survivor count (T/C endpoint: mean survival time, dose: 400.0 mg/kg/injection, schedule: Q01DX009 (ip), vehicle: saline) is listed as 0 of 6.
Consider `O=C(O)c1cc(-c2ccc(F)cc2)nc2ccc(F)cc12`, for which, under setting [1], the survivor count was 0 of 6.
On the same count and under the same terms, in the case of `CC1=C(C)CC(C(Cl)(Cl)Cl)C([N+](=O)[O-])C1` (stereo not given) it was 5 of 6.
`CC(C)OC(=O)Nc1ccncc1`: the survivor count (T/C endpoint: mean survival time, dose: 50.0 mg/kg/injection, schedule: Q04DX002 (ip), vehicle: saline with Tween-80) is listed as 0 of 3; the survivor count (T/C endpoint: mean survival time, dose: 100.0 mg/kg/injection, schedule: Q04DX002 (ip), vehicle: saline with Tween-80) is 0 of 3; the survivor count (T/C endpoint: mean survival time, dose: 200.0 mg/kg/injection, schedule: Q04DX002 (ip), vehicle: saline with Tween-80) is recorded as 0 of 3; the survivor count (T/C endpoint: mean survival time, dose: 400.0 mg/kg/injection, schedule: Q04DX002 (ip), vehicle: saline with Tween-80) is 0 of 3.
`NP(=O)(Oc1ccccc1)Oc1ccccc1`: the survivor count is, setting by setting: (T/C endpoint: mean survival time, dose: 50.0 mg/kg/injection, schedule: Q01DX009 (ip), vehicle: saline with Tween-80) 3 of 6; (T/C endpoint: mean survival time, dose: 100.0 mg/kg/injection, schedule: Q01DX009 (ip), vehicle: saline with Tween-80) 0 of 6; (T/C endpoint: mean survival time, dose: 200.0 mg/kg/injection, schedule: Q04DX003 (ip), vehicle: saline with Tween-80) 2 of 6; under setting [1], 0 of 6.
Regarding `CC(C)C(O)C(C)(C)c1nc2ccccc2[nH]1` (stereo not given), the survivor count (T/C endpoint: mean survival time, dose: 400.0 mg/kg/injection, schedule: Q01DX001 (ip), vehicle: saline with Tween-80) was 0 of 3.
With `NC(=O)C1C=CN(Cc2ccccc2)C=C1`, the survivor count (T/C endpoint: median survival time, dose: 240.0 mg/kg/injection, schedule: Q01DX005 (ip), vehicle: saline with Tween-80) was 4 of 6 and the survivor count (T/C endpoint: median survival time, dose: 480.0 mg/kg/injection, schedule: Q01DX005 (ip), vehicle: saline with Tween-80) is on record as 1 of 6.
For `CS(=O)(=O)C(Br)(Br)S(C)(=O)=O`, the survivor count runs as follows: (T/C endpoint: mean survival time, dose: 18.75 mg/kg/injection, schedule: Q01DX001 (ip), vehicle: saline with Tween-80) 2 of 6; (T/C endpoint: mean survival time, dose: 75.0 mg/kg/injection, schedule: Q01DX001 (ip), vehicle: saline with Tween-80) 0 of 6; (T/C endpoint: mean survival time, dose: 150.0 mg/kg/injection, schedule: Q01DX001 (ip), vehicle: saline with Tween-80) 0 of 6; (T/C endpoint: mean survival time, dose: 300.0 mg/kg/injection, schedule: Q01DX001 (ip), vehicle: saline with Tween-80) 0 of 6.
As for `CN(C)c1ccc(/C=C2\C=Nc3ccccc32)cc1`, under “T/C endpoint: mean survival time, dose: 50.0 mg/kg/injection, schedule: Q04DX003 (ip), vehicle: saline with Tween-80”, the survivor count is reported as 3 of 3.
For `COc1cc(C)ccc1Cl`, where the note is “T/C endpoint: mean survival time, dose: 400.0 mg/kg/injection, schedule: Q01DX009 (ip), vehicle: saline with Tween-80”, the survivor count is reported as 3 of 6.
For `NCC1CC2C=CC1C2` (stereo not given), the survivor count (T/C endpoint: mean survival time, dose: 400.0 mg/kg/injection, schedule: Q01DX001 (ip), vehicle: saline) is 0 of 6.
As for `COc1ccc(C=C(C(=O)CCN(C)C)C(=O)CCN(C)C)cc1`, the survivor count (T/C endpoint: median survival time, dose: 400.0 mg/kg/injection, schedule: Q01DX005 (ip), vehicle: saline) was 2 of 6.
For the molecule `S=c1[nH]c2ccccc2[nH]c1=S`, the survivor count (T/C endpoint: mean survival time, dose: 40.0 mg/kg/injection, schedule: Q01DX001 (ip), vehicle: Klucel (hydroxypropylcellulose) (HPC)) is reported as 1 of 6.
